Consider six molecules from doi:10.1101/2022.08.15.504042.

The chains behind the UniProt entries cited, without tags or fusion partners. Where a name states a change or a piece, a line headed by the entry shows the natural chain unless it says otherwise.
UniProt Q21126: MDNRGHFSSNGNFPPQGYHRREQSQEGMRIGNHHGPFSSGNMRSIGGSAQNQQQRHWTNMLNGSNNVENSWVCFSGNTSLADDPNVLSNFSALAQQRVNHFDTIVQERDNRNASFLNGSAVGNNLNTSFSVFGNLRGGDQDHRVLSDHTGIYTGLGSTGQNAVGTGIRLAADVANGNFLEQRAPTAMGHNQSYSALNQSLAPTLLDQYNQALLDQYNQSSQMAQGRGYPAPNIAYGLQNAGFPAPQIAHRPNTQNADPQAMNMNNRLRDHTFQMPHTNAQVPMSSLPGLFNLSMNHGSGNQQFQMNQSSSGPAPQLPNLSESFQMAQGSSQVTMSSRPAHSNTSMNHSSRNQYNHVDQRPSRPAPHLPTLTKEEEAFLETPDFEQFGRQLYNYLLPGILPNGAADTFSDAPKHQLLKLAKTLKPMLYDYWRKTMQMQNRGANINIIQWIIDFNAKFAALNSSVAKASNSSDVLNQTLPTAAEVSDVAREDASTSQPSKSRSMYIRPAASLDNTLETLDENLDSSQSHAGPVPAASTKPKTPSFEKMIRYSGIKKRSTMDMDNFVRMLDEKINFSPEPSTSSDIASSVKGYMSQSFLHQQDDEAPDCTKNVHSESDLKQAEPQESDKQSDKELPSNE
UniProt Q20937: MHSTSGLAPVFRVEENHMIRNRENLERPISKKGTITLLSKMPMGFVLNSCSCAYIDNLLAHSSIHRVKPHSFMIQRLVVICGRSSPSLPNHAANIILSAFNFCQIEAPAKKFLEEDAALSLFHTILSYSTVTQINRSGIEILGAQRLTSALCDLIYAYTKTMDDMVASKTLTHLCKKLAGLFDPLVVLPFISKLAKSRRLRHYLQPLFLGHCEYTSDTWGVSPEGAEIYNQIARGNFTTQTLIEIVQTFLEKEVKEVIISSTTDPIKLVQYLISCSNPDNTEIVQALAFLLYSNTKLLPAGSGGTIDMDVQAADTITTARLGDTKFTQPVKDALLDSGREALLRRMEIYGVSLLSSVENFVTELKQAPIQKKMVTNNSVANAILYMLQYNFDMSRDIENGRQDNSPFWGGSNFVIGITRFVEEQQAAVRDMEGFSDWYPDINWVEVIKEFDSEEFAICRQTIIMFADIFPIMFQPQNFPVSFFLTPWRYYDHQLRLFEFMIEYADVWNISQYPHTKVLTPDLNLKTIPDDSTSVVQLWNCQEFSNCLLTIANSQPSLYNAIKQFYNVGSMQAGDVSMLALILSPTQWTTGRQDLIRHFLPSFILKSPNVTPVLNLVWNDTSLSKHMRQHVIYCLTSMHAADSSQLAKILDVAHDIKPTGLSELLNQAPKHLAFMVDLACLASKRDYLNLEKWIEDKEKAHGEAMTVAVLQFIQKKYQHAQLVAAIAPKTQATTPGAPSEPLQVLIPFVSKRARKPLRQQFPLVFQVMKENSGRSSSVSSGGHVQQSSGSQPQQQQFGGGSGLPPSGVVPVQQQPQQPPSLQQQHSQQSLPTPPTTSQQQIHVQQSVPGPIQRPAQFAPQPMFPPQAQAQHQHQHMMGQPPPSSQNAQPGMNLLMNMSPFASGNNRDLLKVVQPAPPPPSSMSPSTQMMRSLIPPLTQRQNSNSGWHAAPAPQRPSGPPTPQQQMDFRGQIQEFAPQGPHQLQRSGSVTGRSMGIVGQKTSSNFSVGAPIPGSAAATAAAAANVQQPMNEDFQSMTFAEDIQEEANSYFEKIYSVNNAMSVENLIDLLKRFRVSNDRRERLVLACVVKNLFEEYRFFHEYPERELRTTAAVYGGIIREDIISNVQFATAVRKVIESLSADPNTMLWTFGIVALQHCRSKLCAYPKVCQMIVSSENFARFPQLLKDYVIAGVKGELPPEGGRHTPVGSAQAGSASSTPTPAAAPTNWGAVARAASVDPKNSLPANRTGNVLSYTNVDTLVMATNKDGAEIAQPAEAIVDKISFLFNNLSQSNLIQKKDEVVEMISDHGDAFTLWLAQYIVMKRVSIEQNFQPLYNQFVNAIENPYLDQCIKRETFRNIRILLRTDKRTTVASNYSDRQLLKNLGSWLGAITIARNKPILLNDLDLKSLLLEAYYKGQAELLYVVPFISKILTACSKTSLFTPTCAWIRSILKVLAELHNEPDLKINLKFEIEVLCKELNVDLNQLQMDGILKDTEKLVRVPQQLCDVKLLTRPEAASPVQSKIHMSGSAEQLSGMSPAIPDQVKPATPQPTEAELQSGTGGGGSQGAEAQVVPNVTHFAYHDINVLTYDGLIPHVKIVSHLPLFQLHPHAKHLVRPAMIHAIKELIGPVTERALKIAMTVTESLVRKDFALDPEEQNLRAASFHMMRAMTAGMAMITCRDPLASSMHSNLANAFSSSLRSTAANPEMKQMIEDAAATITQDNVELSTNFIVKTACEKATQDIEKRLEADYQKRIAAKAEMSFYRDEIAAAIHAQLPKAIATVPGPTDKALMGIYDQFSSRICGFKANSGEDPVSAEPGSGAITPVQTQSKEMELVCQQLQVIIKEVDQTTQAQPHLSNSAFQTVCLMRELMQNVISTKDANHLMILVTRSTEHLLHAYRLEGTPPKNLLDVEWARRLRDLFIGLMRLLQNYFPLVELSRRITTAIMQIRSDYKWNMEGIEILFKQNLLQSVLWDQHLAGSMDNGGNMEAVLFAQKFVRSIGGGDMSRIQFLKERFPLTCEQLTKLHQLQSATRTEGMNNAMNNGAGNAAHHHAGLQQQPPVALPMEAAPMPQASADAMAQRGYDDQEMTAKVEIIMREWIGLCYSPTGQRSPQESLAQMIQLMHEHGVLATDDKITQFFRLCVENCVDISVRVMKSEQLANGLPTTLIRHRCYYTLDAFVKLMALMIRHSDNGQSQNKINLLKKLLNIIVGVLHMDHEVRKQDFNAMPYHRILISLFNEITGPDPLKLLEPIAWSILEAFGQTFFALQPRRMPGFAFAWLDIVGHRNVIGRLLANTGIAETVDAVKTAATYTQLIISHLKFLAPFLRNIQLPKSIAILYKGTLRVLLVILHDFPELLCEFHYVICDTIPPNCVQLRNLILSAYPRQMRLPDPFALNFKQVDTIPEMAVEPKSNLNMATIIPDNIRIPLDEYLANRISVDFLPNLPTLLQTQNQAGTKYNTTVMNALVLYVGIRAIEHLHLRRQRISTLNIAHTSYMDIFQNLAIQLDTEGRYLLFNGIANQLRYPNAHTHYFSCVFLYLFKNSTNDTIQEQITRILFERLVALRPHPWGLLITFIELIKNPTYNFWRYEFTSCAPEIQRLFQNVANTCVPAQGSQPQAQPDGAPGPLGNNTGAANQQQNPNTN
UniProt G5EF15: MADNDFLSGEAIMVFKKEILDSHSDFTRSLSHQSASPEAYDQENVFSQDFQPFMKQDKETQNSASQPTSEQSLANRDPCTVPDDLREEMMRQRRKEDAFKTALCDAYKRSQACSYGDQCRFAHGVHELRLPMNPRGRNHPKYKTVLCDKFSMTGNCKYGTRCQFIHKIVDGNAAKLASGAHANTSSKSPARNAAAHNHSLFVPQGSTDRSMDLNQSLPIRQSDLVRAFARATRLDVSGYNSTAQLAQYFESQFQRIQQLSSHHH
UniProt G5EF02: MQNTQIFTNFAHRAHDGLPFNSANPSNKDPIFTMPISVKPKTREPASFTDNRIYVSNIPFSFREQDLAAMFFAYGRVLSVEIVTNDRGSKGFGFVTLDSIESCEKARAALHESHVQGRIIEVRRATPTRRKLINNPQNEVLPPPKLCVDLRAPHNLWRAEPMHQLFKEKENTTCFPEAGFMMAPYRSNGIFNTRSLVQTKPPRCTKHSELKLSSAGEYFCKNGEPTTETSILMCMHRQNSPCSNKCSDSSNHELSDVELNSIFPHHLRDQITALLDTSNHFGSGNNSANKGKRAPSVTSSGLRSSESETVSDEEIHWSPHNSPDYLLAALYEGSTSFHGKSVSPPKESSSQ

No constants are given. Whether binding was seen depends on the method and setting. Binding seen in cells or lysates may run through a third protein. A yes stands for co-enrichment or nearness to the bait. Other partners may have been found.

Sequences and labels used below:
B1: MEG-2 (protein, UniProt Q21127 1-819)
chain: MENCDDLSSDENLPPPGDHRREQSQERARVGNRDESVSSTNMRSIGGAVHNQQQLYWTDMYNGSNNLENFWLCFSGNTSLADDPTVQSDSSASTQSRTNQSGTIAQETDNRNASNFPPRSTTRRGQTYESRDESQGGQAPSHQNQVPGVDRDEYAGDRSNVSINLPSVDQWREYSFSDNSFQGESRTVQRRSSRATHRVKNQFGSIGDGRTSNNTSLQEPVIQDTRNRNRSESSSTMSSQSRTEHAPIFRLQYNYQREADNRSSRLVQIQGHSAPNNANGLQNTGGQAPDIGPEVNGQSSDTRAMNMGNQMAQGDSHVPMNFVPRPLSNGVPRLHGVPRLVDMYDYELAQRAHARRYPTSNMPYGFPNAGFQAPPHMGLWPNNQNADTRAMNMDNRSRDRTFQMPPANAQVPTSSLSGLFNSSINHGSGNQQFQMGQSSSGSAPQLPALPENFLMAHANSQIPTSSLSGLFNAMNHGSGNRMNHSSSGPAPQLPNLPESFLMAHGIGQVETRSPAGPSNSSINHGSGNQQFPVQQSSSRPAPQLPNLPESFLMAHGLSQIQTSSTAGPSNSSMNHGSGNQQFRMGQSSSRPAPQLPSLQESFLMAHGIAQVETSSTAGPSNSSMNHGSGNQQFPVQQSSSRPAPHLPDLIRQEEEFLNTLEFEQFARRLYNDLLPGVDPNYDSGTSTSETPVLKFSITLKAMLYDYWRTMVQMQYRGANINFLQSIINLNARSAALNSSNARASGSADVQNQTVSATVEGADDASANVNALSDLLAQSFPRQAEGEASRRNDIDHPEDDLNQADSPKSDNQSDKDPPSN
B2: OMA-1 (protein, UniProt G5EC86 1-407)
chain: MNVNGENNEKIDEHHLESSLAGVPTLPVSPLDHAKDLSQTNPNAQIGDLVTQTANLIAIKKQLLEDIAFNQHIQSMQVRAIQSFPQNNQVAPPFQQFDPRRRGLARMQKPESYKTVICQAWLESKTCSFADNCRFAHGEEELRPTFVEPLQNNKYKTKLCDKYTTTGLCPYGKRCLFIHPDHGPNAYIRADKLLEVSQRHALADIRDQMEQHIMTNGRIAAPPLSAIQHPLEMFARPSTPDEPAAKLPLGPTPVSTRGPRYELPTKELHDAEGAMTYPPSRWPLDPSMFALDAWNMAHRPASPLDSMVLGSAPNAGSFGMLGKQNTPGGVSGYSSAGSTPSQDLSSSSLNAASAAAAAAYFANSAVAQSLLMKSVATDPMMSCNGPFSPMPGFDQLAENMTKHLNLW
B3: DCP2^DCAP-2 (protein, UniProt O62255 1-786)
chain: MEISTENWCKKPKNRSIFSKNISFQKQNKSTEEPPSSVQKLLASLQQAQNKSDLSEQPSTSKPKKNEKRKKAVAQAPASAPAPGPEEKKKQPKRASVGARMQQQAENARISQTKRPRQVSTSKGSSRNTTAPEQQNYQQQQQQYKGPRIPTDILDELEFRFISNMVECEINDNIRVCFHLELAHWYYIDHMVEDDKISGCPNVGSRDFNFQMCQHCRVLRKYAHRADEVLAKFREYKSTVPTYGAILVDPEMDHVVLVQSYFAKGKNWGFPKGKINQAEPPRDAAIRETFEETGFDFGIYSEKEKKFQRFINDGMVRLYLVKNVPKDFNFQPQTRKEIRKIEWFKIDDLPTDKTDELPAYLQGNKFYMVMPFVKDIQIYVQKEKEKLRRRKAEAVQSTPSSSIFSQLFPAQPPPPVPEDATPTRPMYKRLTSEELFSAFKNPPAGEVARPTLPDMSPAVNGLDTLAVLGICTPLKPGASLNEFSGAPQNCPMISEEAGSPADPSAEIGFAMPMDLKQPVVTSDHPWQHHKISDSSAPPQTLESHQGWLDTQLVNTIMHSPNHPLPPTSNSPATPTAVLGHLIGKPIQPQAILPQAATPTALGSAEKPKSSRISLSDNSAFKAISSTQKQSIPKATAAPPSTEKTRSASLSGSSQVVGKPARNLFNSVVSPVSSGIQSIQGDGGAWEDVWFREQLAATTTAGTSISSLAASNQELAMINREETPIEDPYFKQQAYQKAQKAQSLIPACSQWTNSIKLDIDYVVGPLSFWMQQFSTKSPVSGTGPQLP

The assay deals with MEG-1::GFP (C. elegans) (UniProt Q21126). The experiment in a line: affinity purification with mass spectrometry.
Regarding CNOT1^NTL-1 (from UniProt Q20937), the binding entry is recorded as “binds”.

With POS-1 (from UniProt G5EF15 1-264), the binding result was “binds”.

As to SPN-4 (from UniProt G5EF02), the binding entry is “binds”.

As to B1, the binding result is listed as “binds”.

For B2, the binding result is listed as “binds”.

Regarding B3, the binding result is “binds”.
